Reference: article PMC10384675, “Novel Thiazolidine-2,4-dione-trimethoxybenzene-thiazole Hybrids as Human Topoisomerases Inhibitors” (Pharmaceuticals, 2023)

What was measured:
Format in all cases: cell-based
[1] = test system: MCF-7 breast cancer cells; assay: MTT cell viability assay, MCF-7; details: Homo sapiens, MCF7, 72 h, read-out: IC50 MCF-7
Description: (§1) All of the synthesized compounds (7a–f) were studied to test their anticancer activity toward the estrogen receptor-positive (ER+) MCF-7 and the triple-negative MDA-MB-231 breast cancer cells (ER-, PR- and HER-2/Neu not overexpressed) and A2058 melanoma cells. Cells were incubated for 72 h with different concentrations of the compounds, and then the viability was checked by the MTT assay. […] Moreover, we checked the cytotoxicity of all of the synthesized compounds against the human MCF-10A non-malignant breast epithelial cells and mouse BALB/3T3 embryonic fibroblasts, in order to evaluate their selectivity on cancer cells.
(§2) The used cell lines (breast cancer cell lines MCF-7 and MDA-MB-231, melanoma cell line A2058 and human mammary epithelial cell line MCF-10A) were obtained from American Type Culture Collection (ATCC, Manassas, VA, USA) and cultured as already reported. The mouse BALB/3T3 embryonic fibroblasts were also purchased from American Type Culture Collection (ATCC, Manassas, VA, USA) and cultured in DMEM high glucose supplemented with 10% bovine calf serum (BCS) and 100 U mL^−1 penicillin/streptomycin.
(§3) MTT assay (Sigma Aldrich (St. Louis, MO, USA)) was performed for evaluating the in vitro anticancer activities of the compounds, as previously indicated. Different concentrations (0.1, 1, 10, 25, 50, and 100 μM) of the compounds were employed, with a 72 h endpoint. […]

A2058 melanoma cells = assay: MTT cell viability assay, A2058; details: Homo sapiens, A2058, 72 h, read-out: IC50 A2058
Description: as §1, §2, §3

[2] = test system: human MCF-10A non-malignant breast epithelial cells; assay: MTT cytotoxicity assay, MCF-10A; details: 72 h, read-out: IC50 MCF-10A
Description: as §1, §2, §3

[3] = test system: MDA-MB-231 breast cancer cells; assay: MTT cell viability assay, MDA-MB-231; details: Homo sapiens, MDA-MB-231, 72 h, read-out: IC50 MDA-MB-231
Description: as §1, §2, §3

## COc1cc2c(c(OC)c1OC)-c1ccc(OC)c(=O)cc1[C@@H](NC(C)=O)CC2 [colchicine, reference compound]
[1]
  IC50: 16 nM
A2058 melanoma cells
  IC50: 34 nM
[2]
  IC50: 8.9 nM
[3]
  IC50: 81 nM
